Patent US20030165486A1, “Compositions and methods for the induction of retinal detachments” (priority 1999, published 2003)
Some entries share one result that the patent states for a list of compounds.

System: retina of rabbit eyes
Format: in vivo
Conditions: 75 I.U. hyaluronidase, 3 days later intravitreal PEG
Experimental: In this study, 12-pigmented rabbits were divided into 2 groups of 6 animals each. Group I consisted of six animals that were injected OD with PEG 300. […] As a control, these same animals received saline injections OS and thus served as a control group (Group Ia).
Group II consisted of six animals that were injected that were injected OD with PEG 400. […] As a control, these same animals received saline injections OS and thus served as a control group (Group IIa).
During this procedure a number of ophthalmic methodologies were utilized to monitor the effects and progress of the various experimental treatments. For example, indirect ophthalmoscopy was utilized by a retinal specialist to determine the effects of administering a retinal detaching dose of the compounds disclosed. […] Light microscopy and electron microscopy of eye samples was used to determine the effect of the treatments from a histological perspective. Ultrasonography techniques were used to objectively determine the presence of retinal detachment. Additionally, electroretinography was performed to determine changes due to treatment.

Row | Substance | time to spontaneous retinal re-attachment after intravitreal PEG injection [weeks]
1 | Polyethylene Glycol 300 [PEG 300] | ≤ 3
2 | Polyethylene Glycol 400 [PEG 400] | ≤ 3
